## Primary screen of a compound library

Amino acid sequences for entries named in this document (tags omitted). Residues count along the entry.
UniProt P9WPC5, whole entry: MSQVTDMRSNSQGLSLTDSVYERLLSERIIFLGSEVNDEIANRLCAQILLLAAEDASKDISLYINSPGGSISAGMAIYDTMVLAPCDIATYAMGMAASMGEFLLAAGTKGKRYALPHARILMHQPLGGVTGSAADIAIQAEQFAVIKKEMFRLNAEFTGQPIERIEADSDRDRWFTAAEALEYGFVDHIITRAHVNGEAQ
UniProt P9WPC3, whole entry partner: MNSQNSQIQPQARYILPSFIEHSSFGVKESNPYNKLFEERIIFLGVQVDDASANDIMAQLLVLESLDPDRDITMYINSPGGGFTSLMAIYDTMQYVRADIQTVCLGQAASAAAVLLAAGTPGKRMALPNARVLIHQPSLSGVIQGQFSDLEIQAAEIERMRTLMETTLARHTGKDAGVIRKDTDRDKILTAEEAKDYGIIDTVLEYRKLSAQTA
UniProt I6X8D2, whole entry: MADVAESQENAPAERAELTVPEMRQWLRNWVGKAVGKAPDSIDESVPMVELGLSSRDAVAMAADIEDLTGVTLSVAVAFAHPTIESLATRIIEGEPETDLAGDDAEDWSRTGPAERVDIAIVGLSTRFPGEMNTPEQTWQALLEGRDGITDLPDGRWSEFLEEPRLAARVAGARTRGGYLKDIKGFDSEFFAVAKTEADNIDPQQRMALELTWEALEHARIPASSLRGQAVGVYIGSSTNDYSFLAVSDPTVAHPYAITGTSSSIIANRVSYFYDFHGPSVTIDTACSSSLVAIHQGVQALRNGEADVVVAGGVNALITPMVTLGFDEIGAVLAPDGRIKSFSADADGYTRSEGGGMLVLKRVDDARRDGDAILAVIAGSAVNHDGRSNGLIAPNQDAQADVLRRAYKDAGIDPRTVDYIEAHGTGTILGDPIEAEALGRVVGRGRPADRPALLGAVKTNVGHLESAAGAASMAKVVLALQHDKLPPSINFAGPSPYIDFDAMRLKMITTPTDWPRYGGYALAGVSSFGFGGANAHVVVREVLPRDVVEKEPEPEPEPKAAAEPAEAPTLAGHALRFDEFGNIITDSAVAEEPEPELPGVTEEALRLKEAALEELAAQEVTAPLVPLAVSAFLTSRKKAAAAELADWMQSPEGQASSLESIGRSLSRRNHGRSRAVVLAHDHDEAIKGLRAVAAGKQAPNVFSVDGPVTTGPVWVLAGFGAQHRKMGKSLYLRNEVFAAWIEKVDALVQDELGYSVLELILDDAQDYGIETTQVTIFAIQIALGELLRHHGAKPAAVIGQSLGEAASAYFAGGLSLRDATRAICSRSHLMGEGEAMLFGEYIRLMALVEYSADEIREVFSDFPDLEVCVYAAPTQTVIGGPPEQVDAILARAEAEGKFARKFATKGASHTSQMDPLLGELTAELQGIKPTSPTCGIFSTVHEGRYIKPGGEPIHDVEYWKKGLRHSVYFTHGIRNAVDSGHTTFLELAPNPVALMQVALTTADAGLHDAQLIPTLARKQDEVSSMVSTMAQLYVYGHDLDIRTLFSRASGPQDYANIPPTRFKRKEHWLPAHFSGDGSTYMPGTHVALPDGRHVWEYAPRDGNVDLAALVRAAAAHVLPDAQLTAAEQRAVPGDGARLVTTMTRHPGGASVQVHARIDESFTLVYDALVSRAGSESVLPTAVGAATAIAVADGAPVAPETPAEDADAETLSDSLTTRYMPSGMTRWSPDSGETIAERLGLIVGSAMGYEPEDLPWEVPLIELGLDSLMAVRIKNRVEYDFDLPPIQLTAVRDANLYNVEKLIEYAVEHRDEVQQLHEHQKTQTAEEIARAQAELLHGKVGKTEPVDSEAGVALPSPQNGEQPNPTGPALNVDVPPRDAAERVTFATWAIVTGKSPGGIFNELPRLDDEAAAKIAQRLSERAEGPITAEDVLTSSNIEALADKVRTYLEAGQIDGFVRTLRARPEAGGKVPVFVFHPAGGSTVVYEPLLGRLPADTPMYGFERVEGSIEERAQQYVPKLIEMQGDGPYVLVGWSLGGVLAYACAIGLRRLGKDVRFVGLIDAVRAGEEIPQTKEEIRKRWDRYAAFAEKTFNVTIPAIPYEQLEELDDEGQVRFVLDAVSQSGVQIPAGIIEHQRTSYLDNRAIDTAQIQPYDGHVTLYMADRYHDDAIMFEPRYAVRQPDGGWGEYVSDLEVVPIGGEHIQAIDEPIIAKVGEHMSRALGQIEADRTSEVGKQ
UniProt Q8IDJ8, 1-583: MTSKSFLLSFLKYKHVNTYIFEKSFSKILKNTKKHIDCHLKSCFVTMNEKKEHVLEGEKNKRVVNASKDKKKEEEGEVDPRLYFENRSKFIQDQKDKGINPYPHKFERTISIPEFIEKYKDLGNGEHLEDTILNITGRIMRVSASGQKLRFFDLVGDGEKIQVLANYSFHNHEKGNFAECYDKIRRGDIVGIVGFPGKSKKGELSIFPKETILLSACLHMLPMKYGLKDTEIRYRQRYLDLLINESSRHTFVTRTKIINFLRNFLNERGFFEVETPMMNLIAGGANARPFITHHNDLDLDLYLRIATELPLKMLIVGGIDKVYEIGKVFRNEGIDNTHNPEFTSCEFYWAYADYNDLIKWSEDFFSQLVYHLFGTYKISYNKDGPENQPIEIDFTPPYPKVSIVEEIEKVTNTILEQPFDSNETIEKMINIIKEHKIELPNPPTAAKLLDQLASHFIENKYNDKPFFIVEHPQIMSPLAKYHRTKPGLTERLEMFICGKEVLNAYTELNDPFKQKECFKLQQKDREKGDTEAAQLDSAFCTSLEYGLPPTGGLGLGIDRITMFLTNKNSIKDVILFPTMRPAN

Source: ChEMBL document CHEMBL3988442, “University of Dundee, Small-Polar-MMV Screening Library” (2021).

Values are the deposited “Percent Effect”, in %.
How 0% and 100% were set is not recorded. Most values in the screen are low, and negative values occur.
This is an unselected part of the compounds tested.
Two or more numbers in one place are separate tests of the same structure; such repeats can differ widely.

ClpP1P2: 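Protease assay of ClpP1P2, read by the AMC dye that it sets free. Target: ClpP1P2, Mycobacterium tuberculosis (UniProt P9WPC5 and UniProt P9WPC3). Tested at 50 µM. Higher reads as stronger inhibition, judged from the few compounds that gave an IC50. Most other retested compounds had strongly negative values. Size under these conditions: about 69,000 compounds, about 10 of them at 50% or above in at least one test.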
Leishmania in macrophages: 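Cell assay of Leishmania donovani living inside macrophages; the read-out is not stated. Tested at 30 µM. Direction is inferred from retests: higher values go with stronger inhibition. About 69,000 compounds were tested under these conditions; 1.5% (about 1,000) showed 50% or more at least once.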
Pks13 thioesterase: 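Enzyme assay of the thioesterase domain of polyketide synthase 13; the read-out is not stated. Target: Polyketide synthase Pks13, Mycobacterium tuberculosis (UniProt I6X8D2). Tested at 30 µM. Higher reads as stronger inhibition (inferred from which compounds were picked for retests). Of about 67,000 compounds tested this way, about 300 (0.46%) reached 50% or more in at least one test.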
PfKRS1: 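Lysine-tRNA ligase, Plasmodium falciparum 3D7 (UniProt Q8IDJ8). Enzyme assay of the cytosolic lysyl-tRNA synthetase in 384-well plates, read by luminescence. Tested at 30 µM. Higher reads as stronger inhibition, judged from the few compounds that gave an IC50. Of about 69,000 compounds tested this way, about 49 (0.071%) reached 50% or more in at least one test.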
Toxoplasma: 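Assay of Toxoplasma gondii numbers, read through their beta-galactosidase reporter with a colour substrate. Compounds at 10 µM. Higher reads as fewer parasites (inferred from which compounds were picked for retests). About 67,000 compounds were tested under these conditions; 0.38% (about 260) showed 50% or more at least once.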

Result for CN(C)c1nc(NCCCN2CCc3ccccc32)ncc1F was ClpP1P2: 10.32%; Leishmania in macrophages: 50.82%; Pks13 thioesterase: -7.332%; PfKRS1: -4.733%; Toxoplasma: -19.38%. For Cc1cn(Cc2nc(CC(C)C)nn2-c2ccccn2)c(=O)[nH]c1=O the result was ClpP1P2: -2.497%; Leishmania in macrophages: -4.29%; Pks13 thioesterase: -1.182%; PfKRS1: 2.177%; Toxoplasma: -5.447%. [H][C@@]12CN(CCOC)C[C@]1([H])OCCN2c1ccnc(N(C)C)n1 gave Leishmania in macrophages: 23.22%; Toxoplasma: -16.73%. Result for COCCN1C[C@@H](c2ccccc2)[C@@]2(CCN(CC(=O)N(C)C)C2=O)C1 was ClpP1P2: -8.004%; Pks13 thioesterase: -20.33%; PfKRS1: 0.161%.

With CCn1nnnc1-c1cccc(NCc2nc(C)ccc2O)c1 the screen gave ClpP1P2: -9.084%; Leishmania in macrophages: -11.75%; Pks13 thioesterase: -22.59%; PfKRS1: 5.557%; Toxoplasma: -7.502%. With Cc1ccc(C(=O)NCC(O)c2cccc(F)c2)c(=O)[nH]1 (centres undefined) the screen gave ClpP1P2: -14.42%; Leishmania in macrophages: 11.89%; Pks13 thioesterase: -0.7457%; PfKRS1: 0.1984%; Toxoplasma: -11.09%. Cn1cccc1C(=O)N1CCc2ncnc(C3CC3)c2CC1 gave ClpP1P2: 8.723%; Leishmania in macrophages: -4.108%; Pks13 thioesterase: -17.66%; PfKRS1: -2.038%; Toxoplasma: -1.719%. Cc1nn(C)c(N(C)C)c1CNCc1cnn(Cc2ccccc2)c1 gave ClpP1P2: -3.98%; Leishmania in macrophages: 5.152%; Pks13 thioesterase: -42.74%; PfKRS1: 1.324%; Toxoplasma: -12.46%.

O=C(O)C(F)(F)F.O=S(=O)(C1CC1)N1CCOC2(CCCN(Cc3ccccn3)C2)C1 (centres undefined) read Leishmania in macrophages: 35.74%; Toxoplasma: 11.38%. With COc1ccc2c(c1)nc1n2[C@@H](CNCc2nccs2)COC1 the screen gave ClpP1P2: -3.863%; Leishmania in macrophages: 19.36%; Pks13 thioesterase: -25.98%; PfKRS1: 0.5259%; Toxoplasma: 7.902%. With Cn1cncc1CN1CCC2(CC1)COCCN(S(C)(=O)=O)C2.O=C(O)C(F)(F)F the screen gave Leishmania in macrophages: 34.37%; Toxoplasma: -9.914%. With CCCN1CCCC2(CCN(c3nccc(OC)n3)C2)C1=O (centres undefined) the screen gave ClpP1P2: -3.479%; Leishmania in macrophages: -0.9345%; Pks13 thioesterase: -53.6%; PfKRS1: -0.6222%; Toxoplasma: -5.503%.

CC(C)Cc1noc(CN(C)C2CCCC2)n1 read ClpP1P2: -3.12%; Leishmania in macrophages: -6.322%; Pks13 thioesterase: -3.279%; PfKRS1: -1.086%; Toxoplasma: -20.41%. For O=C(O)C(F)(F)F.[H][C@@]12CCN(Cc3scnc3C)C[C@]1(C(=O)N1CCOCC1)CCO2 the result was Leishmania in macrophages: 3.206% & 11.75%; Toxoplasma: -3.837%. Cc1ccc(CN(C)C(=O)c2n[nH]c(N)c2-c2ccccc2)o1 gave ClpP1P2: -6.124%; Leishmania in macrophages: -6.066%; Pks13 thioesterase: 16.71%; PfKRS1: -4.886%; Toxoplasma: -0.8179%. CCn1ccnc1CN1CCC(Oc2cccc(F)c2)(C(=O)O)CC1 read ClpP1P2: -3.999%; Leishmania in macrophages: 2.732%; Pks13 thioesterase: -5.27%; PfKRS1: 7.131%; Toxoplasma: 1.621%.

[H][C@]12CN(Cc3cccc(F)c3)CC[C@@]1(O)CCN(S(=O)(=O)N(C)C)C2 read Leishmania in macrophages: 0.1106%; Toxoplasma: -6.43%. Cc1nc[nH]c1CN(Cc1ccccc1)C1CC(C)(C)NC(C)(C)C1.O=C(O)CC(O)(CC(=O)O)C(=O)O read Leishmania in macrophages: 45.23%; Toxoplasma: 20.99%. With Cc1nn(C)c(Cl)c1C1CCCN1C(=O)c1cc(C2CC2)on1 (centres undefined) the screen gave ClpP1P2: -2.489%; Leishmania in macrophages: 20.93%; Pks13 thioesterase: -11.63%; PfKRS1: 0.3337%; Toxoplasma: -0.9517%.

Once more, the final 2:

{"compound": "Cc1nc[nH]c1CN(Cc1ccccc1)C1CC(C)(C)NC(C)(C)C1.O=C(O)CC(O)(CC(=O)O)C(=O)O", "Leishmania in macrophages": 45.23, "Toxoplasma": 20.99}
{"compound": "Cc1nn(C)c(Cl)c1C1CCCN1C(=O)c1cc(C2CC2)on1", "stereo": "centres undefined", "ClpP1P2": -2.489, "Leishmania in macrophages": 20.93, "Pks13 thioesterase": -11.63, "PfKRS1": 0.3337, "Toxoplasma": -0.9517}